No constants are given. Whether binding was seen depends on the method and setting. Binding seen in cells or lysates may run through a third protein. Here binding means that the protein was enriched with, or labelled near, the bait; the list need not be complete.
Molecular target: full-length C/EBPβ derived from SU-DHL1 cells (human (endogenous in SU-DHL1)) (UniProt P17676)
Test: affinity purification with mass spectrometry

The chains behind the UniProt entries cited, without tags or fusion partners.
UniProt P17676: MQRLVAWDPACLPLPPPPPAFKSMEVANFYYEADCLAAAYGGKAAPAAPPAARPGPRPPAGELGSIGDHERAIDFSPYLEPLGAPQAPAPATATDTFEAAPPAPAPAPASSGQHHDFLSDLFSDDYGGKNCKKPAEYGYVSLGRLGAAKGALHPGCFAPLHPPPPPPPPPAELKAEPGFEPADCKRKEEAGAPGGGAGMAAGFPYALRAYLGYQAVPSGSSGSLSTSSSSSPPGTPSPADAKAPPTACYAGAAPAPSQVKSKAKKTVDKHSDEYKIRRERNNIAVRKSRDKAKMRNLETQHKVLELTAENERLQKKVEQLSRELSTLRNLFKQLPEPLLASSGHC
UniProt Q12873: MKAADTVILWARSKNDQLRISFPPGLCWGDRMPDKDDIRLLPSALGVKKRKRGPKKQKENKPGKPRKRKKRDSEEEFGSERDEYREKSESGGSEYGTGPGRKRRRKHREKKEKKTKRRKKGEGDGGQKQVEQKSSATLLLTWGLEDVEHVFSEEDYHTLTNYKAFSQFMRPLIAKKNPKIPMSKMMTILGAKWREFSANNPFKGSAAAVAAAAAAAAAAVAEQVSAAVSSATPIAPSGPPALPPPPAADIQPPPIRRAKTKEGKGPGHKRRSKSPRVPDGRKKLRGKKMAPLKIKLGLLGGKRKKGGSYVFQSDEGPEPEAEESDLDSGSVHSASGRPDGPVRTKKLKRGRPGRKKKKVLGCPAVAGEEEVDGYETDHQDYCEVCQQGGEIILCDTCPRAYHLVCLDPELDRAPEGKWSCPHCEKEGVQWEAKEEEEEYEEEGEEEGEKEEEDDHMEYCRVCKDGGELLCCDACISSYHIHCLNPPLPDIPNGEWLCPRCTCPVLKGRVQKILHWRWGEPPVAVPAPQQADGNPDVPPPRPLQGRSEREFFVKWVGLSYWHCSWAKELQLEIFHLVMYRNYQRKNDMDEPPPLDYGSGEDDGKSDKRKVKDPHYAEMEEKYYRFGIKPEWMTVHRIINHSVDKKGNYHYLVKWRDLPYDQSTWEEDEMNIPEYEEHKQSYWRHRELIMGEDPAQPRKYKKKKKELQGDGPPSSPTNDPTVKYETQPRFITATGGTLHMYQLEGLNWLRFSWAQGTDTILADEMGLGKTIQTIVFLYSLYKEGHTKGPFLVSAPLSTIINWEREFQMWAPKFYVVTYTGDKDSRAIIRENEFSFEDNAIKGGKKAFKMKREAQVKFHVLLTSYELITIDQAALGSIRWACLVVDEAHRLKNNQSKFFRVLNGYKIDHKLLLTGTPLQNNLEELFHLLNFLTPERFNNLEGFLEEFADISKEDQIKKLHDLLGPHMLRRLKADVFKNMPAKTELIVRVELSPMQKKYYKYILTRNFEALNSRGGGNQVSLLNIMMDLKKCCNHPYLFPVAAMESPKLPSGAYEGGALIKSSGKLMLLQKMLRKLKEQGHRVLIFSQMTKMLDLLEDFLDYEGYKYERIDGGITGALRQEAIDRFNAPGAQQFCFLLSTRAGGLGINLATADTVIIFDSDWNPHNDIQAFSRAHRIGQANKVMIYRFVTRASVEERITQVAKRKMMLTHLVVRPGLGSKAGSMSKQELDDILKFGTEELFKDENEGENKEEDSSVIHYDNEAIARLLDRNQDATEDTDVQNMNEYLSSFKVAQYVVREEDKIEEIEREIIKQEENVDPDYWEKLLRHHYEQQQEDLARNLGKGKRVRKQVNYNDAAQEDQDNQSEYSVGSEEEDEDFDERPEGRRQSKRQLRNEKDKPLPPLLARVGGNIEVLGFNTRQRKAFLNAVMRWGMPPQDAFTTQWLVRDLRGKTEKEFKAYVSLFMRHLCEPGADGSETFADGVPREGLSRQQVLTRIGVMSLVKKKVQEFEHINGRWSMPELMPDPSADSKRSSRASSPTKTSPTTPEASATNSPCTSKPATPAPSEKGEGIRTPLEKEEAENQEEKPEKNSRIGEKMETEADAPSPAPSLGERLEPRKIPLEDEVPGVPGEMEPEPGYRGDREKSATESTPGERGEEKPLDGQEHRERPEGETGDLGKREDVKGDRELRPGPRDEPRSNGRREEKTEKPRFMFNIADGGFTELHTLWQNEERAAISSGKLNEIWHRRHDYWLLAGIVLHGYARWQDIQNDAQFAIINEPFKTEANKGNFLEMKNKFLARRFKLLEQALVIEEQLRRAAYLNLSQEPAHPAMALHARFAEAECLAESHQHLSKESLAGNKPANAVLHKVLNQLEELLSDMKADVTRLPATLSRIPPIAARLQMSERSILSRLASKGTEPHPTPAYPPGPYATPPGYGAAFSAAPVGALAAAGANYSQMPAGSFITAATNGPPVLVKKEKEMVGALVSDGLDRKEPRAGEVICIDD
UniProt Q14839: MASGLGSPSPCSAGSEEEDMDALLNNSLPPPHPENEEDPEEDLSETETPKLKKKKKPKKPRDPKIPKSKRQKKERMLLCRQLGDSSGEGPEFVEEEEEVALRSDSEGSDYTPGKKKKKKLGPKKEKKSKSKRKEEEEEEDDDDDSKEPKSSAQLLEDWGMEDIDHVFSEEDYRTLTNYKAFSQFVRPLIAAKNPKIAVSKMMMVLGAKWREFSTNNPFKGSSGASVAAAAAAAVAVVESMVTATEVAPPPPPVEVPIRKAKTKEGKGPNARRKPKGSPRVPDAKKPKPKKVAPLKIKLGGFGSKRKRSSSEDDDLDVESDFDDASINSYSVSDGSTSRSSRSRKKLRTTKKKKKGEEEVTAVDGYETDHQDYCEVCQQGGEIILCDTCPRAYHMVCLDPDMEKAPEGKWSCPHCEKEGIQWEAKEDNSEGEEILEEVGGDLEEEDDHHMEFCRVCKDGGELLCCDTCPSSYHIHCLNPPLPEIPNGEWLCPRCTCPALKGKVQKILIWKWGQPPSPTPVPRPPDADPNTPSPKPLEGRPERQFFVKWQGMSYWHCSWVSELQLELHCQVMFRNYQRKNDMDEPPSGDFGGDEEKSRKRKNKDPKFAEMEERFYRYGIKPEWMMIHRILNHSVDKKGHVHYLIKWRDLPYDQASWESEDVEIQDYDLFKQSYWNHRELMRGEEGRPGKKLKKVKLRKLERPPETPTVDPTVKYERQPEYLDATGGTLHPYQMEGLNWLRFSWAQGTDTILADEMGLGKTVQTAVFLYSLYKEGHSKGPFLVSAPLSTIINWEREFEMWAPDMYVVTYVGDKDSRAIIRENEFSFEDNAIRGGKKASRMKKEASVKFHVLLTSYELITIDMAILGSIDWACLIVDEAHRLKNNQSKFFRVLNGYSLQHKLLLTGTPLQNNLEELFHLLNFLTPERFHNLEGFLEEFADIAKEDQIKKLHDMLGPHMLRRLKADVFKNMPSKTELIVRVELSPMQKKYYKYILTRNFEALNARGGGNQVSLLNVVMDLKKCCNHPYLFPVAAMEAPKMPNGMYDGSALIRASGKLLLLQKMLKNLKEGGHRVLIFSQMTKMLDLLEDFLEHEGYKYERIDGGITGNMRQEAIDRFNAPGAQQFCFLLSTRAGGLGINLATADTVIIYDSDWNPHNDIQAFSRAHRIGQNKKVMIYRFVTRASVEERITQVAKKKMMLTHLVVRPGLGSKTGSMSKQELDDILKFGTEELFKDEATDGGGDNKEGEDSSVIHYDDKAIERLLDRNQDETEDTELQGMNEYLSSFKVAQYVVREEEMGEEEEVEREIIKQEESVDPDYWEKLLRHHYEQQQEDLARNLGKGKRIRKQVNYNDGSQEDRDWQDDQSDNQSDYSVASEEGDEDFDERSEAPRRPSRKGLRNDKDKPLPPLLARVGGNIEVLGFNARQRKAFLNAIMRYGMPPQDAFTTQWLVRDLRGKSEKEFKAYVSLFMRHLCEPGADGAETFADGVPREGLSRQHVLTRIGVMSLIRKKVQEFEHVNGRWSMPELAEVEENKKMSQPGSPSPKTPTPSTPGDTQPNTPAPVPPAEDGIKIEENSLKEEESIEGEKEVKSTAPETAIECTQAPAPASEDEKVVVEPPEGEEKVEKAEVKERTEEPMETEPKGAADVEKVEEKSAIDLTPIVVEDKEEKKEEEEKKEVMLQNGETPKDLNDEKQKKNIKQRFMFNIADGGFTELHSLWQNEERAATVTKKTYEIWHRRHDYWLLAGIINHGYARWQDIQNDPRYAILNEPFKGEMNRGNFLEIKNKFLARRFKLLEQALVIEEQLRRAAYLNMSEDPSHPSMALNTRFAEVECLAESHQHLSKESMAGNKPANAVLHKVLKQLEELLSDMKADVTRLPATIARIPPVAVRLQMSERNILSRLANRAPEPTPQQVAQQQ
UniProt Q13547: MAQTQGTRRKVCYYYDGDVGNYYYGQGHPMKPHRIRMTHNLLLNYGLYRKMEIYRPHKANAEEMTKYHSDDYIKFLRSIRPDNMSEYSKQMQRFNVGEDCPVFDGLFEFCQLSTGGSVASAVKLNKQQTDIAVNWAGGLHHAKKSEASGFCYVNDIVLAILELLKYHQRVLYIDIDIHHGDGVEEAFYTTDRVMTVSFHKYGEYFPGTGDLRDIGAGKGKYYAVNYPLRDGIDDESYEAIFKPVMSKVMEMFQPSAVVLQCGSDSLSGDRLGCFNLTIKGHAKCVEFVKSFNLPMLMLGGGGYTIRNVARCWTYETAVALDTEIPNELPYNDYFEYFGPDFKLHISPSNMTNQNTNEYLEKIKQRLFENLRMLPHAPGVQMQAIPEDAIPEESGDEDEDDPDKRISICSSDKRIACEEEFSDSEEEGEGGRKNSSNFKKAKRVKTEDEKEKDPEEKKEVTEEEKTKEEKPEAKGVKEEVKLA
UniProt Q9UBB5: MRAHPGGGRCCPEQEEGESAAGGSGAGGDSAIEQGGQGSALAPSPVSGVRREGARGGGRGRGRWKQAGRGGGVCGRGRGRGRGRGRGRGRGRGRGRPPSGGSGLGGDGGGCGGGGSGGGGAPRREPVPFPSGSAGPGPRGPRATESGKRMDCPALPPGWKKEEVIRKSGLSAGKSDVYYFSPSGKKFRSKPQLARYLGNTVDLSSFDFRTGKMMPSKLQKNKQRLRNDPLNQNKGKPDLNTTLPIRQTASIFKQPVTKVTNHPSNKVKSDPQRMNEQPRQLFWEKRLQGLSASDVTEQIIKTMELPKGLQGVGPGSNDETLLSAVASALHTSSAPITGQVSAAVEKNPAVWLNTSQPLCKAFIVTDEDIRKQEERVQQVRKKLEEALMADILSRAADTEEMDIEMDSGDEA

| binding | Substance |
| --- | --- |
| binds | CHD3 (from UniProt Q12873 1-2000) |
| binds | CHD4 (from UniProt Q14839 1-1912) |
| binds | HDAC1 (from UniProt Q13547 1-482) |
| binds | MBD2 (endogenous) (from UniProt Q9UBB5 1-411) |
